The target of this assay is T1, FLAG-tagged HPV8-E7 (pCMV2-HPV8-E7-FLAG), in C33a cells (human papillomavirus type 8 (HPV8)) (UniProt P06430).
T1 sequence: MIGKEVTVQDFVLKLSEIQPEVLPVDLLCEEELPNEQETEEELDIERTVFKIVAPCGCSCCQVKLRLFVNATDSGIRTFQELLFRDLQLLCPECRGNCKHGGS
The experiment in a line: affinity purification with mass spectrometry; Co-IP of FLAG-tagged HPV8-E7 from transfected C33a cells, bound cellular proteins by LC-MS/MS (LFQ); cut-off more than twofold and p < 0.05.

The chains behind the UniProt entries cited, without tags or fusion partners. Residues count along the entry.
UniProt O75964: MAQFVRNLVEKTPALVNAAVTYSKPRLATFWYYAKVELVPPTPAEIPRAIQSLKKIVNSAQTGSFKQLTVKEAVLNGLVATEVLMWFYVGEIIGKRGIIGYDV
UniProt P25705, residues 44-553: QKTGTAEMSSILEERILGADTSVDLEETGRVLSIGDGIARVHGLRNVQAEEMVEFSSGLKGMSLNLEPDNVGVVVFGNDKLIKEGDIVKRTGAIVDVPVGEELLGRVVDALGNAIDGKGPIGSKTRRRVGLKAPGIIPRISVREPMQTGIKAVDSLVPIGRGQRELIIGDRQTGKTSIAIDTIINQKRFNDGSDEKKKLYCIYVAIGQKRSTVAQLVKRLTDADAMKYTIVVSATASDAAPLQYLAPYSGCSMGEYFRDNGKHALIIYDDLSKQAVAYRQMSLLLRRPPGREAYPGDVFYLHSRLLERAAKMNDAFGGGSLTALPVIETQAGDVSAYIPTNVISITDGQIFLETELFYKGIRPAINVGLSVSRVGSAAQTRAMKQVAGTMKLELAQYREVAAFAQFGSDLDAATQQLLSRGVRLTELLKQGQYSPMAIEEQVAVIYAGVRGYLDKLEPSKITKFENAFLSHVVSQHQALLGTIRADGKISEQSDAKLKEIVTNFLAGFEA
UniProt P24539, residues 43-256: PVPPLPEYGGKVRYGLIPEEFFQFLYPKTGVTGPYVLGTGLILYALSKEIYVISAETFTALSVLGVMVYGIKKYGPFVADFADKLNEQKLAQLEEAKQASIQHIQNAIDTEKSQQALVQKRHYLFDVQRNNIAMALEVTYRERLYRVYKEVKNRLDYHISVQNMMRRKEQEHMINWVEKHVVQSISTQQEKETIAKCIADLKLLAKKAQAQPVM

No constants are given. Whether binding was seen depends on the method and setting. Binding seen in cells or lysates may run through a third protein. These calls come from enrichment with a bait or labelling near it, and not all partners need be listed. Where a sequence is shown, tags or fusion partners need not be part of it.

On to “ATP5L, subunit of the mitochondrial ATP synthase, in C33a cells (from UniProt O75964 1-103)”, for which the binding result is recorded as “binds”.

In the case of “ATP5A1, subunit of the mitochondrial ATP synthase, in C33a cells (from UniProt P25705 44-553)”, the binding entry is given as “binds”.

With “ATP5F1, subunit of the mitochondrial ATP synthase, in C33a cells (from UniProt P24539 43-256)”, the binding result is listed as “binds”.

Regarding “ATP5B, beta subunit of the mitochondrial ATP synthase, in C33a cells (from UniProt P06576 48-529)”, the binding result is recorded as “binds”.

The record behind these values is article PMC7567072.
